The target of assay [1] is T1, mitochondrial transcription factor A (TFAM) (human (endogenous in SW620 and HT29)) (UniProt Q00059).
T1 sequence: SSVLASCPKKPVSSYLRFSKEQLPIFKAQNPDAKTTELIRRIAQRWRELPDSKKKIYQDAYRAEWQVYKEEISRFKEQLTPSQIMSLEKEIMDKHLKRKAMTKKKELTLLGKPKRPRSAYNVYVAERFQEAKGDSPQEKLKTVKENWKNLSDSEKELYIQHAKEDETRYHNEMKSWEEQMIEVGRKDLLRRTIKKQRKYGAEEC
Description: co-IP; endogenous proteins in RIPA lysates of SW620 and HT29 cells; antibody overnight at 4 °C, protein A+G agarose 1 h at room temperature; also in control, SNAP23-knockdown and SNAP23-restored cells.

Chains of the proteins cited; added tags and fusions are not shown. Lines headed by an entry give the natural chain unless they say otherwise; changes in a name come on top.
UniProt P19474: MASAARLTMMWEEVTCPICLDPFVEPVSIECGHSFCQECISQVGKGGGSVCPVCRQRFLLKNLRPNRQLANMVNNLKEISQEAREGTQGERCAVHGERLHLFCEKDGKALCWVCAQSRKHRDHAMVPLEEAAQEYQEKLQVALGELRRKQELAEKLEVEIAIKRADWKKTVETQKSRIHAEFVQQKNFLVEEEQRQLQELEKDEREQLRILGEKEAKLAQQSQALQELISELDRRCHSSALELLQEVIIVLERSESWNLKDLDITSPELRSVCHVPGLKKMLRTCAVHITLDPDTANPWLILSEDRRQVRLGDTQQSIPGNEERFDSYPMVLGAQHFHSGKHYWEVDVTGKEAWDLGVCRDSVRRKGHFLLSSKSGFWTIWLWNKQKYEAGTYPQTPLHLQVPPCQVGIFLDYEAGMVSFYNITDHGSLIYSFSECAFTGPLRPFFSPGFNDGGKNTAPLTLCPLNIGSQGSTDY

Assay [2] deals with T2, Synaptosomal-associated protein 23 (SNAP23) (human (endogenous in SW620 and HT29)) (UniProt O00161).
T2 sequence: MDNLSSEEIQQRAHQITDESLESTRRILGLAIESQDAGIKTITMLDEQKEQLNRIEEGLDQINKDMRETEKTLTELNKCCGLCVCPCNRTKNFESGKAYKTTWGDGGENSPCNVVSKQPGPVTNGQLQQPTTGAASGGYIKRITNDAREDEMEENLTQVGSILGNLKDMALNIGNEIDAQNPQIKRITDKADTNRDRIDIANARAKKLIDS
The description is as above.

For assay [3], the target named is T1, mitochondrial transcription factor A (TFAM) (human (endogenous in SW620 and HT29)). Description: co-IP; mitochondrial and cytoplasmic fractions isolated from control (shNT) and SNAP23-knockdown SW620 cells pretreated with MG132; immunoprecipitation from each fraction, blots for SNAP23, Trim21 and TFAM.
The target in assay [4] is T2, Synaptosomal-associated protein 23 (SNAP23) (human (endogenous in SW620 and HT29)). The assay is described as above.
The target in assay [5] is T3, SNAP23 (in HEK293T cells) (UniProt O00161).
T3 sequence: T2 sequence
Description: co-IP; lysates of HEK293T cells expressing Trim21 deletion mutants.

For the next assay, the target named is T4, TFAM (in HEK293T cells) (UniProt Q00059).
T4 sequence: T1 sequence
The description is as above.

These are yes or no findings as the source states them, for the method shown. Binding seen in cells or lysates may run through a third protein. Some results given as binding are weak or reduced against the parent protein; the word gives no strength.

“E3 ubiquitin ligase Trim21 (from UniProt P19474 1-475)”: the binding entry in assay [1], in assay [2], in assay [3] and in assay [4] was “binds” throughout.
Take “TRIM21 (△1–81aa) (from UniProt P19474 82-475) (domain or fragment)”: the binding result (in assay [5]; with TFAM (in HEK293T cells)) was “binds” each time.
As for “TRIM21 (△1–128aa) (from UniProt P19474 129-475) (domain or fragment)”, the binding result (in assay [5]; in the assay with TFAM (in HEK293T cells)) was “binds” in each case.
For “TRIM21 (△1–268aa) (from UniProt P19474 269-475) (domain or fragment)”, the binding result (in assay [5]; with TFAM (in HEK293T cells)) was “binds” in each case.
